Measurements: publication PMC7188950
No constants are given. Whether binding was seen depends on the method and setting. In cells and extracts the contact can be indirect.

Target: Signal transducer and activator of transcription 3 (mouse (endogenous in crude mitochondria)), P42227
Assay: co-IP; crude mitochondria solubilized with 2% digitonin (detergent:protein = 4:1), diluted five times with MRB; Protein A/G beads coated with STAT3, NDUFA13 or GFP antibody; overnight at 4°C; four washes with MRB; Western blot
Details: remark: other sources report otherwise

binding: no binding
B1: NADH:ubiquinone oxidoreductase subunit A13, Q9ERS2 1-144 (protein)
chain: MAASKVKQDMPPPGGYGPIDYKRNLPRRGLSGYSMFAVGIGALIFGYWRMMRWNQERRRLLIEDLEARIALMPLFQAEKDRRTLQILRENLEEEAIIMKDVPNWKVGESVFHTTRWVPPLIGEMYGLRTKEEMSNANFGFTWYT
